Test results as given in the supplement of paper PMC4683952.
The other results are listed elsewhere or left out. No stated cut-off is given here; in the data, active = 2 or more and inactive = the rest. Most values lie within the scatter of the assay; repeated measurements hardly agree.

System: Lgr5 (MarsCy1-Lgr5-EGFP, U2OS)
Experiment: cell-surface Lgr5 expression (SCi1 fluorescence, background-subtracted) relative to WT DMSO (fold of DMSO control); higher = more Lgr5 at the plasma membrane
Details: U2OS MarsCy1-Lgr5-EGFP stable; treatment time: overnight; library: ActiProbe-5K (TimTec); 25 µM

cell-surface Lgr5 expression, inactive:
C/C=C1\CC[N+]2(C)CCC34C(=C(C=O)C1CC32)N(C)c1ccccc14.[Cl-] (centres undefined) 1.21
CC1CCc2c(CO)csc2C1 (centres undefined) 1.22
CCc1sc(C2C(C#N)=C(N)SC(N)=C2C#N)cc1Br 1.4
CC(C)(C)CC(C)(C)NC(=O)CSc1nnc(N)s1 1.22
Cc1cc(C(=O)Nc2c(C)noc2C)sc1C 1.09
Oc1ccc(/C=N/n2cnnc2)cc1O 1.05
Nc1cc(O)nn1C1CCCCC1 0.95
O=c1nc(O)c(Cl)cn1CC(O)CO (centres undefined) 1.22
OCCC1CNCCN1Cc1ccco1 (centres undefined) 1.21
CCC(C)(C)C(=O)Nc1nnc(C(C)C)s1 1.07
NC1CCCc2c1[nH]c1ccc(Br)cc21 (centres undefined) 0.401
Cc1cccc2c1NC(C)(C)c1ss/c(=N/c3cc(Cl)ccc3Cl)c1-2 1
CCOC(=O)C1=C(C)NC(=S)NC1c1cc(C)sc1C (centres undefined) 0.993
C=C(Cl)COC(=O)C1C2C=CC(C2)C1C(=O)O (centres undefined) 1.07
COc1cc(Cl)c(S(=O)(=O)NCCOC23CC4CC(CC(C4)C2)C3)cc1Cl 1.1
Cc1nn2cn[nH]c2nc1=O 1.4
CCCc1[nH]nc2c1C1(CCOCC1)C(C#N)=C(N)O2 1.28
Clc1c2c(nc3ccccc13)CCCC2 1.02
Nc1sc2c(c1-c1nnn[nH]1)CCCC2 0.976
CC(C)(C)[Si](C)(C)N1C(=O)C[C@H]1C(=O)O 1.16
Nn1c(-n2cccn2)nn([C@@H]2CC(=O)[C@H]3OC[C@@H]2O3)c1=S 1.04
O=c1oc2ccccc2cc1C1=Nc2ccccc2SC(c2c3ccccc3cc3ccccc23)C1 (centres undefined) 0.825
CS(=O)(=O)N1CCc2cc(NS(=O)(=O)c3ccc(F)cc3)ccc21 1.16
COCCNC(=O)N1CCOCC1 1.05
COc1cc(N)c(Br)cc1Br 1.15
Cn1c(=S)n(CCSc2nc3ccccc3[nH]2)c2ccccc21 1.58
Oc1nc(S)nc2[nH]cnc12 1.12
S=C(c1ccc2c(c1)OCCO2)N1CCOCC1 1.25
COc1cc2c(cc1O)C=NCC2 1.34
Cc1[nH]c(=O)c(C#N)c(C)c1CSCc1ccco1 1.1
CC(C)C(=O)Nc1ccn(C2CC(O)C(CO)O2)c(=O)n1 (centres undefined) 1.14
O=[N+]([O-])c1ccc(/N=C\c2cc(Br)cc([N+](=O)[O-])c2O)c(O)c1 1.14
On1c2c(c3c4nonc4ccc31)CCCC2 0.562
CCn1c(S)nnc1-c1cc(C2CC2)nc2c1c(C1CC1)nn2C 1.24
CC(CCc1cc(C(C)(C)C)c(O)c(C(C)(C)C)c1)c1cc(C(C)(C)C)c(O)c(C(C)(C)C)c1 (centres undefined) 1.03
Cn1cc(Cl)c(C(=O)NCCn2cc(Cl)cn2)n1 1.02
CN1CCN(C(=O)CCC(=O)O)CC1 1.34
CCCCN1C(=O)/C(=C\c2c(N3CCCC3)nc3c(C)cccn3c2=O)SC1=S 0.76
CCOC(=O)c1c(NC(C)=O)sc(SSc2sc(NC(C)=O)c(C(=O)OCC)c2C)c1C 1.14
Clc1ccc(C2=Nc3ccc4ccccc4c3C(c3ccc(Cl)cc3)N2)cc1 (centres undefined) 0.949
O=C(NCCN1CCOCC1)C(=O)NCCN1CCOCC1 1.17
COC(=O)c1nc(Cl)c(Cl)c(N)c1Cl 0.863
O=C(Nc1scc(-c2cccs2)c1C(=O)O)c1cccs1 0.937
CC1n2c(nc3ccccc32)S(=O)(=O)C(c2ccccc2)C1(C)O (centres undefined) 1.22
CSc1ccc(/C=N\N=C\c2ccc(SC)cc2)cc1 1.37
C1CC(C2CCNCC2)CCN1.Cl 1.01
N#Cc1c(SCC(=O)NC2CC2)sc2c(O)cc(=O)[nH]c12 1.18
C=CCON1C(=O)C2C3C=CC(O3)C2C1=O (centres undefined) 1.03
O=C(O)c1nsc(Cl)c1Cl 1.33
Oc1cc2nccnc2cc1F 0.878
COc1ccc(OS(=O)(=O)C(F)(F)F)cc1 1.21
O=C1Nc2ccccc2/C1=N/NC(=S)S 1.27
CCSc1nnc(NC(=O)C2C3C=CC(O3)C2C(=O)O)s1 (centres undefined) 1.14
Fc1ccc(NC(=S)C23CC4CC(CC(C4)C2)C3)cc1 1.23
N#Cc1cnoc1N1CCOCC1 1.11
C=CCNc1nc(N)c(C(C)=O)s1 0.932
c1ccc(C2=NN3C(C2)c2ccccc2OC3c2ccc3ccccc3c2)cc1 (centres undefined) 1.13
NNC(=O)c1n[nH]c2c1CCC2 1.11
CS(=O)(=O)c1ccc2nc(NS(=O)(=O)c3ccc(F)cc3)sc2c1 1.22
O=[N+]([O-])C1=Cc2ccccc2OC1c1ccccc1 (centres undefined) 1.06
CCN(CC)CCN/C(=N\O)c1nonc1N 1.27
CC(C)c1nc(C#N)c(N2CCOCC2)o1 1.11
COc1cc(OC)c2cc[nH]c2c1 1.27
COc1c2c(c(Br)c([N+](=O)[O-])c1[N+](=O)[O-])OCCO2 1.61
S=c1[nH]nc(-c2ccccc2)n1-c1ccccc1 1.41
CC1CN(c2ccc([N+](=O)[O-])c(NC3CC3)c2)CC(C)O1 (centres undefined) 1.35
COC(=O)Nc1ncc(CN2CCOCC2)s1 0.733
COc1nc(-n2nc(C)cc2C)nc(-n2nc(C)cc2C)n1 1.25
N#Cc1c(SCC(=O)C23CC4CC(CC(C4)C2)C3)sc2c(O)nc(=O)[nH]c12 1.19
COc1cc2c(cc1OC)CC1(C2)c2ccccc2CN1C 1.12
N#Cc1ccc(CSc2ncccn2)cc1 1.52
CCCc1nc(N)c(C#N)c(-c2ccco2)c1CC 1.42
O1C([n@]2cc(c([nH]c2=O)=O)CO)C(C(C1CO)O)O (centres undefined) 1.02
Oc1ccc(/C=N/NC(=S)S)cc1 1
OCC(O)/C=N/Nc1nc(N2CCOCC2)nc(N2CCOCC2)n1 (centres undefined) 1.06
O=C1N(O)C2(C=CCCC2)C(=O)C12CCCCC2 (centres undefined) 1.31
OCc1nnn(-c2nc(N3CCOCC3)nc(N3CCOCC3)n2)c1CO 0.985
Cc1cc(C)n(CC(=O)O)c(=O)c1[N+](=O)[O-] 1.2
O=C1Nc2ccccc2/C1=N\c1ccccc1/N=C1/C(=O)Nc2ccccc21 1.13
CCOC(=O)CN1C(=O)S/C(=C\c2ccc(N3CCCC3)o2)C1=O 1.18
O=C(O)c1nn[nH]c1C(=O)O 1.83
Cc1cc(Cc2cc(C(C)(C)C)c(O)c(C(C)(C)C)c2)c(O)c(C(C)(C)C)c1 0.995
NS(=O)(=O)c1cc(Cl)ccc1F 1.37
O=C(NCC1CCCO1)c1cccs1 (centres undefined) 0.874
CC12CNC3(C#N)CC1CCC32C (centres undefined) 1.03
CCCN1c2ccccc2-c2c(ssc2=S)C1(C)C 0.976
CC(C)N1CC(C(=O)O)CC1=O (centres undefined) 1.07
N#C/C(=C/c1ccccc1Cl)c1ccccc1 1.73
CN(C)C(=S)c1ccc(C#N)cc1 1.2
Brc1ccc(/C=N/C23CN4CN(CN(C4)C2)C3)cc1 1.13
O=C(NCN1CCCCC1)C12CC3CC(CC(C3)C1)C2 1.07
O=C1c2ccccc2C2N1c1ccccc1S(=O)(=O)N2Cc1ccccc1 (centres undefined) 1.47
O=C1NC(=S)N/C1=C\c1cc(Br)cc(Br)c1O 1.06
Fc1ccc(Nc2nc(Oc3ccc4c(c3)OCO4)nc(N3CCOCC3)n2)c(F)c1 1.12
Cn1cnc2c(=O)[nH]c(N)nc21 1.03
CN(c1nc(-c2ccccc2)cs1)C1CCS(=O)(=O)C1 (centres undefined) 1.08
O=C(Nc1ccc2nsnc2c1)C1CC1 0.855
O=[N+]([O-])c1ccc(-n2cncn2)c(F)c1 1.07
NCCN1CCC(O)CC1 1.22
O=C1NCCN1C(=O)Nc1ccc(Cl)cc1Cl 0.977
N#Cc1c(C(F)(F)F)cc(-c2cccs2)[nH]c1=O 1.03
COc1ccc(C2=CC(c3ccccc3)SC(=N)N2)cc1 (centres undefined) 1.12
Cc1nc(S)c2ccccc2n1 0.895
CCN1C(N)=C(C#N)C2(CCNCC2)c2nc(C)oc21 0.932
Cn1cccc1CNn1nnnc1N 1.17
COc1cc2c(cc1OC)-c1cc(Br)ccc1C(C#N)C2 (centres undefined) 1.4
CCN(CC)C(=S)SCC(=O)NC12CC3CC(CC(C3)C1)C2 1.12
Cn1cc(/C(Cc2ccccc2)=N/O)c2ccccc21 0.745
c1ccc2sc(-c3cc[nH]n3)nc2c1 0.941

An excerpt from above in order of SMILES length, high to low.
cell-surface Lgr5 expression, inactive:
O=[N+]([O-])c1ccc(-n2cncn2)c(F)c1 1.07
C=CCON1C(=O)C2C3C=CC(O3)C2C1=O (centres undefined) 1.03
CCC(C)(C)C(=O)Nc1nnc(C(C)C)s1 1.07
O=c1nc(O)c(Cl)cn1CC(O)CO (centres undefined) 1.22
O=C(O)c1nsc(Cl)c1Cl 1.33
